Data from patent US20260226055A1, “PYRAZOLE DERIVATIVES AS PHD INHIBITORS” (Oxford University Innovation Limited, priority 2023, published 2026).
For at least one compound, name, drawing or mass did not settle the structure.

Experiment: In vivo blood counts in C57BL/6 mice
Settings: twice daily IP, 68 at 15 or 30 mg/kg, Daprodustat 30 mg/kg, day 4 and 8 vs vehicle

O=C(O)CNC(=O)C1C(=O)N(C2CCCCC2)C(=O)N(C2CCCCC2)C1=O [Daprodustat, reference compound]
Statically significant increases: haematocrit (HCT) | haemoglobin (HGB) | red blood cell count (RBC)
